Measured values: patent publication US20240373847A1, “HERBICIDAL MALONAMIDES” (BASF SE, priority 2021, published 2024)
Some results were stated once for a whole list of compounds, not compound by compound. At least one compound was matched to its structure with a doubt left.

What was measured:
Type in all cases: in vivo
[1] = system: Digitaria sanguinalis (DIGSA); experiment: greenhouse test, pre-emergence treatment; settings: pre-emergence method, scale from 0 to 100
[2] = system: Avena fatua (AVEFA); experiment: greenhouse test, post-emergence treatment; settings: post-emergence method, scale from 0 to 100
[3] = system: Echinocloa crus-galli (ECHCG); experiment: greenhouse test, post-emergence treatment; settings: post-emergence method, scale from 0 to 100
[4] = system: Amaranthus retroflexus (AMARE); experiment: greenhouse test, post-emergence treatment; settings: post-emergence method, scale from 0 to 100
[5] = system: Lolium multiflorum (LOLMU); experiment: greenhouse test, pre-emergence treatment; settings: 0.250 kg/ha, pre-emergence method; scale from 0 to 100
[6] = system: Alopercurus myosuroides (ALOMY); experiment: greenhouse test, post-emergence treatment; settings: 0.250 kg/ha, post-emergence method; scale from 0 to 100
[7] = system: Amaranthus retroflexus (AMARE); experiment: greenhouse test, pre-emergence treatment; settings: pre-emergence method, scale from 0 to 100
[8] = system: Apera spica-venti (APESV); experiment: greenhouse test, pre-emergence treatment; settings: 0.250 kg/ha, pre-emergence method; scale from 0 to 100
[9] = system: Setaria viridis (SETVI); experiment: greenhouse test, post-emergence treatment; settings: post-emergence method, scale from 0 to 100
[10] = system: Echinocloa crus-galli (ECHCG); experiment: greenhouse test, pre-emergence treatment; settings: pre-emergence method, scale from 0 to 100
[11] = system: Setaria faberi (SETFA); experiment: greenhouse test, pre-emergence treatment; settings: pre-emergence method, scale from 0 to 100
[12] = system: Abutilon theophrasti (ABUTH); experiment: greenhouse test, post-emergence treatment; settings: 1.000 kg/ha, post-emergence method; scale from 0 to 100
[13] = system: Setaria viridis (SETVI); experiment: greenhouse test, pre-emergence treatment; settings: 1.000 kg/ha, pre-emergence method; scale from 0 to 100

SMILES	herbicidal activity against ECHCG ([3]; 1.000 kg/ha)	herbicidal activity against AMARE ([4]; 1.000 kg/ha)	herbicidal activity against AVEFA ([2]; 0.250 kg/ha)	herbicidal activity against APESV [8]	herbicidal activity against SETVI ([9]; 0.250 kg/ha)	herbicidal activity against ECHCG ([10]; 1.000 kg/ha)	herbicidal activity against SETFA ([11]; 1.000 kg/ha)	herbicidal activity against ABUTH [12]	herbicidal activity against SETVI ([9]; 1.000 kg/ha)	further results
CCC(C(=O)Nc1cccc(I)c1)C(=O)NC1C=CC(C(=O)O)C1 (mixture of isomers) [I.142]	very good herbicidal activity (a very good herbicidal activity is given at values of 90 to 100)	very good herbicidal activity (a very good herbicidal activity is given at values of 90 to 100)	–	–	–	–	–	–	–	herbicidal activity against DIGSA ([1]; 1.000 kg/ha): very good herbicidal activity (a very good herbicidal activity is given at values of 90 to 100); herbicidal activity against AVEFA ([2]; 1.000 kg/ha): very good herbicidal activity (a very good herbicidal activity is given at values of 90 to 100)
COC(=O)C1C=CC(NC(=O)C(C)C(=O)Nc2cc(F)cc(F)c2)C1 (mixture of isomers) [I.153]	–	–	very good herbicidal activity (a very good herbicidal activity is given at values of 90 to 100)	–	–	–	–	–	–	herbicidal activity against DIGSA ([1]; 0.250 kg/ha): very good herbicidal activity (a very good herbicidal activity is given at values of 90 to 100); herbicidal activity against LOLMU [5]: very good herbicidal activity (a very good herbicidal activity is given at values of 90 to 100); herbicidal activity against ALOMY [6]: very good herbicidal activity (a very good herbicidal activity is given at values of 90 to 100); herbicidal activity against ECHCG ([3]; 0.250 kg/ha): very good herbicidal activity (a very good herbicidal activity is given at values of 90 to 100)
C#CCOC(=O)CC(C)NC(=O)C(C)C(=O)Nc1cc(C)cc(F)c1 (stereo not shown) [I.15]	–	–	good herbicidal activity (A good herbicidal activity is given at values of 70 to <90)	good herbicidal activity (A good herbicidal activity is given at values of 70 to <90)	good herbicidal activity (A good herbicidal activity is given at values of 70 to <90)	–	–	–	–	herbicidal activity against AMARE ([7]; 0.250 kg/ha): good herbicidal activity (A good herbicidal activity is given at values of 70 to <90); herbicidal activity against ALOMY [6]: good herbicidal activity (A good herbicidal activity is given at values of 70 to <90)
COC(=O)[C@@H]1C=C[C@H](NC(=O)C(C)C(=O)Nc2cc(C)cc(F)c2)C1 (stereo partly shown) [I.17]	–	–	very good herbicidal activity (a very good herbicidal activity is given at values of 90 to 100)	very good herbicidal activity (a very good herbicidal activity is given at values of 90 to 100)	very good herbicidal activity (a very good herbicidal activity is given at values of 90 to 100)	–	–	–	–	herbicidal activity against ECHCG ([10]; 0.250 kg/ha): good herbicidal activity (A good herbicidal activity is given at values of 70 to <90); herbicidal activity against SETFA ([11]; 0.250 kg/ha): good herbicidal activity (A good herbicidal activity is given at values of 70 to <90); herbicidal activity against ALOMY [6]: very good herbicidal activity (a very good herbicidal activity is given at values of 90 to 100)
CCC(C(=O)Nc1cccc(Cl)c1)C(=O)N[C@H]1C=C[C@@H](C(=O)OC)C1 (stereo partly shown) [I.93]	–	–	–	very good herbicidal activity (a very good herbicidal activity is given at values of 90 to 100)	very good herbicidal activity (a very good herbicidal activity is given at values of 90 to 100)	–	–	–	–	herbicidal activity against SETFA ([11]; 0.250 kg/ha): very good herbicidal activity (a very good herbicidal activity is given at values of 90 to 100); herbicidal activity against AMARE ([7]; 0.250 kg/ha): good herbicidal activity (A good herbicidal activity is given at values of 70 to <90); herbicidal activity against ECHCG ([3]; 0.250 kg/ha): very good herbicidal activity (a very good herbicidal activity is given at values of 90 to 100); herbicidal activity against AMARE ([4]; 0.250 kg/ha): very good herbicidal activity (a very good herbicidal activity is given at values of 90 to 100)
CCC(C(=O)Nc1cc(F)cc(F)c1)C(=O)N[C@H]1C=C[C@@H](C(=O)OC)C1 (stereo partly shown) [I.96]	–	–	–	very good herbicidal activity (a very good herbicidal activity is given at values of 90 to 100)	very good herbicidal activity (a very good herbicidal activity is given at values of 90 to 100)	–	–	–	–	herbicidal activity against ECHCG ([10]; 0.250 kg/ha): very good herbicidal activity (a very good herbicidal activity is given at values of 90 to 100); herbicidal activity against SETFA ([11]; 0.250 kg/ha): very good herbicidal activity (a very good herbicidal activity is given at values of 90 to 100); herbicidal activity against ECHCG ([3]; 0.250 kg/ha): very good herbicidal activity (a very good herbicidal activity is given at values of 90 to 100); herbicidal activity against AMARE ([4]; 0.250 kg/ha): very good herbicidal activity (a very good herbicidal activity is given at values of 90 to 100)
CCC(C(=O)Nc1cccc(OC(F)(F)F)c1)C(=O)NC(C)CCC(=O)O (stereo not shown) [I.128]	very good herbicidal activity (a very good herbicidal activity is given at values of 90 to 100)	very good herbicidal activity (a very good herbicidal activity is given at values of 90 to 100)	–	–	–	very good herbicidal activity (a very good herbicidal activity is given at values of 90 to 100)	very good herbicidal activity (a very good herbicidal activity is given at values of 90 to 100)	very good herbicidal activity (a very good herbicidal activity is given at values of 90 to 100)	–	–
CCC(C(=O)Nc1cccc(Cl)c1)C(=O)NC(C)CCC(=O)O (stereo not shown) [I.133]	good herbicidal activity (A good herbicidal activity is given at values of 70 to <90)	very good herbicidal activity (a very good herbicidal activity is given at values of 90 to 100)	–	–	–	very good herbicidal activity (a very good herbicidal activity is given at values of 90 to 100)	very good herbicidal activity (a very good herbicidal activity is given at values of 90 to 100)	–	very good herbicidal activity (a very good herbicidal activity is given at values of 90 to 100)	herbicidal activity against AMARE ([7]; 1.000 kg/ha): good herbicidal activity (A good herbicidal activity is given at values of 70 to <90)
CCC(C(=O)Nc1cccc(F)c1)C(=O)NC(C)CCC(=O)O (stereo not shown) [I.134]	–	very good herbicidal activity (a very good herbicidal activity is given at values of 90 to 100)	–	–	–	very good herbicidal activity (a very good herbicidal activity is given at values of 90 to 100)	–	very good herbicidal activity (a very good herbicidal activity is given at values of 90 to 100)	very good herbicidal activity (a very good herbicidal activity is given at values of 90 to 100)	herbicidal activity against AMARE ([7]; 1.000 kg/ha): good herbicidal activity (A good herbicidal activity is given at values of 70 to <90)
CCC(C(=O)Nc1cc(F)cc(Cl)c1)C(=O)NC(C)CCC(=O)O (stereo not shown) [I.135]	–	very good herbicidal activity (a very good herbicidal activity is given at values of 90 to 100)	–	–	–	good herbicidal activity (A good herbicidal activity is given at values of 70 to <90)	very good herbicidal activity (a very good herbicidal activity is given at values of 90 to 100)	very good herbicidal activity (a very good herbicidal activity is given at values of 90 to 100)	very good herbicidal activity (a very good herbicidal activity is given at values of 90 to 100)	herbicidal activity against AMARE ([7]; 1.000 kg/ha): good herbicidal activity (A good herbicidal activity is given at values of 70 to <90)
CCC(C(=O)Nc1cc(F)cc(F)c1)C(=O)NC(C)CCC(=O)O (stereo not shown) [I.137]	–	very good herbicidal activity (a very good herbicidal activity is given at values of 90 to 100)	–	–	–	–	good herbicidal activity (A good herbicidal activity is given at values of 70 to <90)	very good herbicidal activity (a very good herbicidal activity is given at values of 90 to 100)	very good herbicidal activity (a very good herbicidal activity is given at values of 90 to 100)	–
CCC(C(=O)Nc1cccc(F)c1)C(=O)N[C@H]1C=C[C@@H](C(=O)O)C1 (stereo partly shown) [I.138]	very good herbicidal activity (a very good herbicidal activity is given at values of 90 to 100)	very good herbicidal activity (a very good herbicidal activity is given at values of 90 to 100)	–	–	–	–	–	–	–	herbicidal activity against SETVI [13]: good herbicidal activity (A good herbicidal activity is given at values of 70 to <90); herbicidal activity against AVEFA ([2]; 1.000 kg/ha): very good herbicidal activity (a very good herbicidal activity is given at values of 90 to 100)
CCC(C(=O)Nc1cccc(OC(F)(F)F)c1)C(=O)N[C@H]1C=C[C@@H](C(=O)OC2CCC2)C1 (stereo partly shown) [I.156]	–	–	very good herbicidal activity (a very good herbicidal activity is given at values of 90 to 100)	–	very good herbicidal activity (a very good herbicidal activity is given at values of 90 to 100)	–	–	–	–	herbicidal activity against DIGSA ([1]; 0.250 kg/ha): very good herbicidal activity (a very good herbicidal activity is given at values of 90 to 100); herbicidal activity against LOLMU [5]: good herbicidal activity (A good herbicidal activity is given at values of 70 to <90); herbicidal activity against AMARE ([4]; 0.250 kg/ha): very good herbicidal activity (a very good herbicidal activity is given at values of 90 to 100)
